Here are results for 38 molecules from the supplement of paper PMC12823440, “Inhibitors supercharge kinase turnover through native proteolytic circuits” (Nature, 2025).

By UniProt entry, the sequences of proteins in these tests, tags left out. Where a name states a change or a piece, a line headed by the entry shows the natural chain unless it says otherwise.
UniProt P53671: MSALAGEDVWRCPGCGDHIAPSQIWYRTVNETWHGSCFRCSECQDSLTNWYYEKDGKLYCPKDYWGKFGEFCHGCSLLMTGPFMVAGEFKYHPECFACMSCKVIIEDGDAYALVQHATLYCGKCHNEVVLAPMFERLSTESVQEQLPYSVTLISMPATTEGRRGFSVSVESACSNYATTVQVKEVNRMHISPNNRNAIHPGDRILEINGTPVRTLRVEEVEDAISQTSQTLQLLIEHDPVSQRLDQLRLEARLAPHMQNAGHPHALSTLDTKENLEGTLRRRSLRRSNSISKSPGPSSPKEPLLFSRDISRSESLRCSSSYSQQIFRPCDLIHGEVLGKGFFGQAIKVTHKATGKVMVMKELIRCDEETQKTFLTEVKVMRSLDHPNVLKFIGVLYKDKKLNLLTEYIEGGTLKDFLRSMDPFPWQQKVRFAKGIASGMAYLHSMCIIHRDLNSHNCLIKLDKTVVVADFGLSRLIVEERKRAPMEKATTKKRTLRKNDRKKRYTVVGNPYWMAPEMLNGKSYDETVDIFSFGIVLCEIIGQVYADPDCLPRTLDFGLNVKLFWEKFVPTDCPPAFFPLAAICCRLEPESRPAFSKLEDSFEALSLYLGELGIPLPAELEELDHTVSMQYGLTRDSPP

Counter-ions that a name gives are not always drawn. This is one part of the list. The calls rarely recur for the same compound in another form.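 In K562 cells expressing nanoluciferase-fused kinases, luminescence was recorded at 4 h intervals between 2 and 18 h, normalized as percent of control with DMSO at 100% and a positive control at 0%. A significant (2 sigma) signal drop marks a time point as decreased. The authors' rule for a hit is not shown and takes in more than the number of time points.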

This test concerns the target LIMK2 (UniProt P53671). Put plainly: number of time points (of 5) at which kinase-Nluc abundance scored as decreased, DMSO-normalised (count); higher = more persistent destabilization. To be noted: K562; 2-18 h.
`CCc1c(C(=O)NNC(=O)C(O)c2cc(F)cc(F)c2)ccc(O)c1C` (stereo not drawn) (10 µM): the “number of time points” value was determined as 0.

As for `COc1cc2ncnc(Nc3ccc(Cl)cc3F)c2cc1OC` (10 µM), the “number of time points” value turned out to be 0. For `COc1cc(/C=C/C(=O)NCC(O)c2ccc(O)cc2)ccc1O` (stereo not drawn) [N-Feruloyloctopamine] (2.5 µM), the “number of time points” value was determined as 0.

In the case of `NC(=O)c1nc(Nc2ccccc2)sc1NC(=O)C1CCCCC1` (10 µM), the “number of time points” value came out at 0. The value for `O=c1cc(CN2CCOCC2)occ1OCCCCCSc1ccnc2cc(C(F)(F)F)ccc12` (10 µM) was 0; that for `O=C(O)CCC(=O)Nc1ccc(Br)cn1` [Bikinin] (10 µM) was 0.

Consider `CC[C@@H](Oc1nc(Oc2cc(C)cc(-c3cccc(CN)c3)c2)c(F)cc1F)C(=O)O` (10 µM), for which the “number of time points” value came out at 0. With `C[C@]1(O)CCN(c2nc(N3C[C@H](O)[C@@H](O)C3)cc(C(F)(F)F)c2C#N)C1` (10 µM), the “number of time points” value was 0. Take `COc1ccccc1-c1cc(Nc2cccc(CS(N)(=O)=O)c2)ncn1` (10 µM): the “number of time points” value is 0. On to `CC(=O)c1c(C)cc2cccc(O)c2c1O` [Nepodin] (10 µM), for which the “number of time points” value turned out to be 0. For the molecule `NC(=O)c1ccc2[nH]ccc2c1` (10 µM), the “number of time points” value was found to be 0.

As for `COc1cc2c(cc1OC)CN(S(=O)(=O)c1ccc(OC)c(N3CCN(C(=O)c4ccc(F)cc4C(F)(F)F)CC3)c1)CC2` (10 µM), the “number of time points” value was found to be 0. In the case of `OCCn1cc(-c2ccc3c(c2)CC/C3=N\O)c(-c2ccncc2)n1` (10 µM), the “number of time points” value turned out to be 0.

As for `C[C@@H]1CC[C@@H](Nc2nc(NC(C)(C)C)ncc2C(N)=O)C[C@H]1O` (10 µM), the “number of time points” value came out at 0. The value for `CCc1cc2c(cc1N1CCC(N3CCOCC3)CC1)C(C)(C)c1[nH]c3cc(C#N)ccc3c1C2=O` [Alectinib] (10 µM) was 0. For the molecule `COCCNc1nc2ccc(C#CC3(O)CCCCC3)cc2n1-c1ccnc(N)n1` (10 µM), the “number of time points” value is 0. The value for `Cc1[nH]c(/C=C2\C(=O)Nc3ccccc32)c(C)c1CCC(=O)O` [Orantinib] (10 µM) was 0; that for `Nc1cc(C(F)(F)F)c(-c2cc(N3CCOCC3)nc(N3CCOCC3)n2)cn1` [Buparlisib (Hydrochloride)] (2.5 µM) was 0; that for `CCN1CCN(Cc2ccc(Nc3ncc(F)c(-c4cc(F)c5nc(C)n(C(C)C)c5c4)n3)nc2)CC1` [Abemaciclib (methanesulfonate)] (10 µM) was 3. Then `Cc1ccc2cc(-c3c(C)ccc(C(=O)c4c(-c5ccccc5)n(C)n(-c5ccccc5)c4=O)c3N)ccc2n1` (2.5 µM), with 0. Take `FC(F)(c1ccc2ncccc2c1)c1nnc2ccc(-c3ccncc3)nn12` (10 µM): the “number of time points” value was found to be 0.

Consider `O=C1N[C@@H](Cc2c[nH]c3ccccc23)C(=O)N2CCC[C@@H]12` [Brevianamide F] (10 µM), for which the “number of time points” value was 0. Then `Cc1nc2sccn2c(=O)c1CCN1CCC(=C(c2ccccc2)c2ccc(F)cc2)CC1` (10 µM), with 0; and `O=c1[nH]c(=O)n([C@@H]2O[C@H](CO)[C@@H](O)[C@@H]2O)cc1/C=C/Br` [Sorivudine] (10 µM), with 0; and `COc1cc2nccc(Oc3ccc(NC(=O)NC4CC4)c(Cl)c3)c2cc1C(N)=O` [Lenvatinib (mesylate)] (10 µM), with 0. As to `CN1C(=O)N[C@H](Cc2c[nH]c3c(Cl)cccc23)C1=O` [Necrostatin 2] (10 µM), the “number of time points” value worked out at 0.

For `CCN1CCN(Cc2ccc(Nc3ncc(F)c(-c4cc(F)c5nc(C)n(C(C)C)c5c4)n3)nc2)CC1` [Abemaciclib] (2 µM), the “number of time points” value turned out to be 0.

Turning to `Cc1ccc2nc(NCCN)c3ncc(C)n3c2c1` (2.5 µM), the “number of time points” value amounted to 0. `CNC(=O)c1c(F)cccc1Nc1nc(Nc2cc3c(cc2OC)CCN3C(=O)CN(C)C)nc2[nH]ccc12` (10 µM): the “number of time points” value is 0.

For the molecule `Cn1nccc1Nc1nccc(-c2ccn([C@H](CO)c3ccc(Cl)c(F)c3)c(=O)c2)n1` [Ravoxertinib hydrochloride] (10 µM), the “number of time points” value is 0. Then `CN(C)CCSSCCNC(=O)C1CCN(C(=O)CSc2ccc(Cl)cc2)CC1` (10 µM), with 0. The value for `CNC(=O)c1cc(COc2nnc(Nc3ccc(Cl)cc3)c3ccoc23)ccn1` [Telatinib] (10 µM) was 0; that for `NCCNS(=O)(=O)c1cccc2c(Cl)cccc12` [A-3 (hydrochloride)] (10 µM) was 0. The value for `O=C(Nc1ccc(CN2CCOCC2)cc1)c1ccc(-c2cccc(Cl)c2)o1` (10 µM) was 0; that for `CCN1CCN(Cc2ccc(-c3cc4c(N[C@H](C)c5ccccc5)ncnc4[nH]3)cc2)CC1` (2.5 µM) was 2; that for `COc1cccc(OC)c1C(=O)OCc1cc(O)ccc1O[C@@H]1O[C@H](CO)[C@@H](O)[C@H](O)[C@H]1O` [Curculigoside] (10 µM) was 0. In the case of `Nc1ncnc2c1c(-c1ccc(Oc3ccccc3)cc1)nn2C1CCCC1` (2.5 µM), the “number of time points” value stood at 0. Then `CC#CC(=O)N1CC[C@@H](n2c(=O)n(-c3ccc(Oc4ccccc4)cc3)c3c(N)ncnc32)C1` [Tirabrutinib] (10 µM), with 0.
